Taken from: PubChem BioAssay AID1259308 (NCATS, 2017)
Screen: 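Knock-downs that increase output of a recombinant reporter protein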 (primary screen). Cell system: human HEK293 embryonic kidney cells stably expressing firefly luciferase (HEK-CMV-Luc2-Hygro). Reagent: single siRNA against human genes, 0.8 pmol siRNA per well. Time to read-out: 72 h. Detection: 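Reporter luminescence and viable-cell signal on separate replicate plates, given as percent of non-targeting control and median/MAD z-scores, plus per-cell luciferase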. Reading the numbers: total luciferase, z-score and total luciferase, % of control: higher = more reporter protein produced; luciferase per cell, z-score: higher = more reporter output per viable cell; viable cells, % of control: higher = more viable cells. Hit rule: 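An siRNA counts as active if its total luciferase robust z-score exceeds 3; genes with two or more such siRNAs out of three were retested with fresh siRNAs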. Calls: active = raised luciferase; inactive = no rise.
In all, the deposit lists about 59,000 reagents; this is a random part of them. Over the whole deposit, about 1,510 (2.6%) are marked active. 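Calls use total luciferase alone and ignore viability, so some active siRNAs may act by altering cell number.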 Reagents against one gene are numbered here. Reagent sequences are not shown.

The opening 2 entries, to show the layout:
no.	Target gene	reagent no.	total luciferase, z-score	total luciferase, % of control	luciferase per cell, z-score	viable cells, % of control	Outcome
1	DDX19A (DEAD-box helicase 19A)	1	-1.12	59.6	-2.02	113	inactive
2	DDX19A (DEAD-box helicase 19A)	2	1.43	110	1.37	86	inactive

The listing, repeating the preview:
no.	Target gene	reagent no.	total luciferase, z-score	total luciferase, % of control	luciferase per cell, z-score	viable cells, % of control	Outcome
1	DDX19A (DEAD-box helicase 19A)	1	-1.12	59.6	-2.02	113	inactive
2	DDX19A (DEAD-box helicase 19A)	2	1.43	110	1.37	86	inactive
3	DDX19A (DEAD-box helicase 19A)	3	2.5	132	2.01	86.7	inactive
4	GART	1	2.92	140	1.84	96.4	inactive
5	GART	2	-0.794	66.1	-0.0181	74.2	inactive
6	GART	3	-0.464	72.7	-0.175	85	inactive
7	RAB11A (RAB11A, member RAS oncogene family)	1	1.03	102	0.378	104	inactive
8	RAB11A (RAB11A, member RAS oncogene family)	2	-0.507	71.8	-1.17	109	inactive
9	RAB11A (RAB11A, member RAS oncogene family)	3	1.38	109	0.37	111	inactive
10	LOC643339	1	0.196	85.8	0.199	91	inactive
11	LOC643339	2	-0.534	71.3	-0.43	89.2	inactive
12	LOC643339	3	0.0962	83.8	0.564	80.7	inactive
13	GASK1A (golgi associated kinase 1A)	1	-0.221	77.5	0.884	68.6	inactive
14	GASK1A (golgi associated kinase 1A)	2	0.247	86.8	0.207	91.8	inactive
15	GASK1A (golgi associated kinase 1A)	3	-1.47	52.7	-1.97	99	inactive
16	DCD (dermcidin)	1	-0.0494	80.9	-0.329	98.6	inactive
17	DCD (dermcidin)	2	0.489	91.6	0.191	97.4	inactive
18	DCD (dermcidin)	3	-0.583	70.3	-0.603	92.1	inactive
19	SDR16C5 (short chain dehydrogenase/reductase family 16C member 5)	1	-1.06	60.7	-1.94	113	inactive
20	SDR16C5 (short chain dehydrogenase/reductase family 16C member 5)	2	0.42	90.2	1.27	72.2	inactive
21	SDR16C5 (short chain dehydrogenase/reductase family 16C member 5)	3	-0.277	76.4	0.52	74.4	inactive
22	LOC644215	1	-0.394	74	-0.215	87.5	inactive
23	LOC644215	2	0.828	98.4	0.415	98.5	inactive
24	LOC644215	3	-0.723	67.5	-1.18	103	inactive
25	FRY (FRY microtubule binding protein)	1	0.808	98	0.122	106	inactive
26	FRY (FRY microtubule binding protein)	2	0.423	90.3	0.759	82.6	inactive
27	FRY (FRY microtubule binding protein)	3	-1.06	60.8	-0.949	87.2	inactive
28	SLC25A42	1	-0.242	77.1	0.948	67.1	inactive
29	SLC25A42	2	-0.398	74	-0.531	95.1	inactive
30	SLC25A42	3	3.23	146	1.56	108	active
31	SRSF11 (serine and arginine rich splicing factor 11)	1	-1.81	45.8	-2.07	88.2	inactive
32	SRSF11 (serine and arginine rich splicing factor 11)	2	0.00614	82	0.0887	89.5	inactive
33	SRSF11 (serine and arginine rich splicing factor 11)	3	0.35	88.8	0.837	79.6	inactive
34	C11orf87 (chromosome 11 open reading frame 87)	1	0.153	84.9	0.409	85.2	inactive
35	C11orf87 (chromosome 11 open reading frame 87)	2	-1.03	61.4	-0.903	87	inactive
36	C11orf87 (chromosome 11 open reading frame 87)	3	0.566	93.1	0.22	98.2	inactive
37	RARRES2 (retinoic acid receptor responder 2)	1	-0.594	70.1	-0.559	90.7	inactive
38	RARRES2 (retinoic acid receptor responder 2)	2	-0.0197	81.5	0.413	81.7	inactive
39	RARRES2 (retinoic acid receptor responder 2)	3	1.99	122	1.01	104	inactive
